In PubChem BioAssay AID540256 (National Center for Advancing Translational Sciences (NCATS), 2011):
In all, about 300,000 compounds went through this assay and about 3,700 (1.2%) were called active. Inconclusive results, whose numbers are uncertain, are shown with a selection of clear calls. Calls follow the shape of the full dose curve; tested in HEK293 cells. Potencies of inconclusive entries are doubtful fits and often do not repeat.
Potency is read from the fitted curve at half-maximal effect.

Assay: qHTS for Inhibitors of binding or entry into cells for Lassa Virus; also: nearly all actives have a fitted effect of over 50% in size
Conditions: Lassa virus pseudotype entry inhibition, cell reporter; series mostly up to 37.9 µM
In the case of `O=C(Nc1ccc([N+](=O)[O-])cc1)Nc1ccc2c(c1)OCCO2`, the Potency is reported as inconclusive: 11.2 µM [inhibitor, partial curve]. In the case of `CCOc1ccccc1NC(=O)c1nc(SC(C)C)ncc1Cl`, the Potency is reported as “inactive”. In the case of `Cc1c(CNC2CCCCC2)c(C(=O)O)c(C)n1Cc1cccc(Cl)c1`, the Potency is reported as inconclusive: 20 µM [activator, partial curve, poor fit]. For `Cc1c(CCC(=O)NCCc2ccc(Cl)cc2)c(=O)oc2c(C)c(O)ccc12`, the Potency was “inactive”. In the case of `COc1ccccc1CCN=C(N)NS(=O)(=O)c1ccc(F)cc1`, the Potency is reported as inconclusive: 1.12 µM [activator, full curve, poor fit]. With `CCc1nc(NCCC(C)C)c(C#N)c2c1CCCC2` the Potency was “inactive”. For `CCc1ccc(-n2c(=O)c3c4c(sc3n(CC(=O)N3CCCCC3CC)c2=O)CCC4)cc1` (stereo not given), the Potency was “inactive”. For `NC1=C(Cl)C(=O)c2ccc(S(N)(=O)=O)cc2C1=O`, the Potency was inconclusive: 1.41 µM [inhibitor, full curve, poor fit]. With `O=C(CN1C(=O)c2cccnc2Oc2ccc(Cl)cc21)NC1CCCCCC1` the Potency was inconclusive: 20 µM [inhibitor, partial curve, poor fit]. With `O=C(Sc1ccccc1)c1cccc(Cn2cc(C(F)(F)F)ccc2=O)c1` the Potency was inconclusive: 0.562 µM [inhibitor, full curve, poor fit]. For `C=CCN(c1ccccc1C(=O)O)S(=O)(=O)c1ccc(NC(=O)OC)cc1`, the Potency was “inactive”. With `CCC(c1c(C)[nH]oc1=O)c1c(C)[nH]oc1=O` the Potency was inconclusive: 15.8 µM [activator, partial curve, poor fit]. With `O=C(CN1C(=O)COc2ccccc21)NCCc1ccc(Cl)cc1` the Potency was “inactive”. For `Cc1cc(=O)n2nc(N3CCC(C(=O)NCC(C)c4ccccc4)CC3)sc2n1` (stereo not given), the Potency was inconclusive: 17.8 µM [activator, single point]. For `O=C(NNCc1ccccc1)c1ccccn1`, the Potency was inconclusive: 3.55 µM [activator, partial curve, poor fit]. For `O=c1cc(N2CCCC2)c(-c2ccccc2)n[nH]1`, the Potency was “inactive”. For `CNc1ccccc1C(C)(C)c1cc(-c2cc(C)cc(C)c2)no1`, the Potency was inconclusive: 35.5 µM [inhibitor, single point]. With `CCCc1nc2sc3ccccc3c(=O)c2c(=O)n1Cc1ccco1` the Potency was “inactive”. With `COc1cccc(C(=O)c2c(N)c(-c3nc(-c4ccccc4)cs3)c3ccccn23)c1` the Potency was inconclusive: 17.8 µM [inhibitor, single point]. For `CCN(CC)c1ccc(/C=C2/C(=O)NC(=O)N(CC3CCCO3)C2=O)cc1` (stereo not given), the Potency was “inactive”. With `Cc1nc2cc(NS(=O)(=O)c3cccc(F)c3)ccc2s1` the Potency was inconclusive: 6.31 µM [inhibitor, single point]. With `Cc1ccc(Nc2nnc(-c3ccccc3N)o2)cc1C` the Potency was “inactive”. With `NC(=O)c1ccccc1N/C=C/C(=O)c1ccc(Cl)cc1Cl` the Potency was inconclusive: 10 µM [inhibitor, partial curve, poor fit]. With `CC(C)OP(=O)(c1ccc(N(C)C)cc1)C(Nc1ccccc1)c1ccccc1` (stereo not given) the Potency was inconclusive: 20 µM [inhibitor, partial curve, poor fit]. With `Cc1nn(C)c(C)c1NC(=O)CN1CCC(O)(c2ccc3c(c2)OCO3)CC1` the Potency was “inactive”. For `CS(=O)(=O)Nc1cccc(C2=NN(C(=O)c3ccco3)C(c3ccco3)C2)c1` (stereo not given), the Potency was inconclusive: 3.98 µM [inhibitor, partial curve, poor fit]. In the case of `COc1cccc(CNC(=O)c2ccc(CS(=O)(=O)Cc3ccccc3C)o2)c1`, the Potency is reported as inconclusive: 5.62 µM [inhibitor, single point]. With `Cc1ccc(-c2nc(CSCC(=O)NCCCN3CCOCC3)c(C)o2)cc1` the Potency was inconclusive: 6.51 µM [activator, single point]. For `COc1ccc(CC2(CO)CCN(C(=O)NCc3ccccc3)CC2)cc1`, the Potency was inconclusive: 39.8 µM [inhibitor, partial curve, poor fit]. With `Cc1ccc2nsnc2c1S(=O)(=O)NCCc1c(C)[nH]c2ccc(F)cc12` the Potency was inconclusive: 9.2 µM [inhibitor, partial curve, poor fit]. For `Cc1cccc(Nc2n[nH]c(C)c2[N+](=O)[O-])c1`, the Potency was inconclusive: 1.26 µM [activator, single point]. With `CC(C)(C)c1ccc(/C=C2\Oc3cc(OC(=O)N4CCOCC4)ccc3C2=O)cc1` the Potency was active: 8.91 µM. For `COc1ccc(Nc2nc(C(=O)N(CCO)Cc3ccccc3)cs2)cc1`, the Potency was inconclusive: 29.1 µM [inhibitor, single point]. With `COc1ccc(C(=O)NCc2cccnc2)cc1C(=O)NCc1cccnc1` the Potency was inconclusive: 0.0517 µM [activator, full curve, poor fit]. For `COc1ccc(C)cc1NC(=O)CCC(=O)Nc1ccc2nc(N3CCN(C)CC3)cc(C)c2c1`, the Potency was “inactive”. In the case of `O=C(C1CCCO1)N1CCN(Cc2c(O)ccc3ccccc23)CC1` (stereo not given), the Potency is reported as inconclusive: 35.5 µM [activator, single point]. In the case of `CCc1cc2c(NCC3CCCO3)nc(C)nc2s1` (stereo not given), the Potency is reported as inconclusive: 14.1 µM [inhibitor, single point]. For `CCOC(=O)N1CCN(C(=O)COc2cc(C)c(Cl)c(C)c2)CC1`, the Potency was “inactive”. For `COc1ccc(Nc2c3ccccc3nc3ccccc23)cc1`, the Potency was inconclusive: 11.2 µM [inhibitor, partial curve, poor fit]. With `CCOC(=O)c1cccc(NC(=O)/C=C/c2ccc3c(c2)OCO3)c1` the Potency was inconclusive: 29.1 µM [inhibitor, single point]. With `CC(C)(C)n1ncc2c(=O)n(CC(=O)NCc3ccc(F)cc3)cnc21` the Potency was inconclusive: 10 µM [inhibitor, single point]. With `CC(C)CC(c1nnnn1CCc1ccccc1)N1CCN(C(=O)c2ccco2)CC1` (stereo not given) the Potency was inconclusive: 14.1 µM [inhibitor, partial curve, poor fit]. With `COc1ccc(N(CC(=O)NCc2ccccc2)C(=O)Cn2nnc(-c3ccccc3F)n2)cc1OC` the Potency was inconclusive: 35.5 µM [inhibitor, single point]. With `O=c1[nH]c2cc3c(cc2cc1CN(Cc1nnnn1C1CCCC1)C1CCCC1)OCCO3` the Potency was “inactive”. For `COc1ccc(COc2ccc(Cc3cnc(N)nc3N)cc2OC)cc1`, the Potency was inconclusive: 3.15 µM [activator, full curve]. With `Cc1noc(C)c1C(=O)Nc1nc2ccc(S(C)(=O)=O)cc2s1` the Potency was inconclusive: 10 µM [inhibitor, partial curve, poor fit]. For `C[n+]1c2n(c3ccccc31)N=C(c1cc(C(C)(C)C)c(O)c(C(C)(C)C)c1)CS2`, the Potency was inconclusive: 20 µM [inhibitor, partial curve, poor fit]. In the case of `Cc1cc(=O)n2ccsc2n1`, the Potency is reported as “inactive”. With `N=c1oc2cc(O)ccc2cc1C(=O)Nc1ccc(F)cc1` the Potency was inconclusive: 3.98 µM [inhibitor, full curve, poor fit]. In the case of `Cc1ccc(C(OCC(O)CNC(C)c2ccccc2)c2ccccc2)cc1` (stereo not given), the Potency is reported as inconclusive: 15.8 µM [inhibitor, single point]. With `N#CCCn1cc(C=C2C(=O)NC(=O)NC2=O)c(-c2ccccc2)n1` the Potency was “inactive”. In the case of `CCOC(=O)Cc1csc(NC(=O)CC(C)(C)C)n1`, the Potency is reported as active: 7.08 µM. With `Cc1ccc(NCC(=O)Nc2cccc(S(=O)(=O)N(C)C)c2)cc1S(=O)(=O)N1CCCCCC1` the Potency was inconclusive: 35.5 µM [inhibitor, single point]. With `Cc1[nH]c2ccccc2c1C(=O)C(=O)NC1CC1` the Potency was “inactive”. For `Cc1ccc(C(=O)c2cn(CC(=O)NCc3ccccc3Cl)c3nc(C)ccc3c2=O)cc1`, the Potency was “inactive”. With `CCCc1cc(C(=O)N2CCCC(Nc3ccc(C)c(C)c3)C2)n(C)n1` (stereo not given) the Potency was inconclusive: 6.31 µM [inhibitor, single point]. In the case of `CCCCNC(=S)N1CCn2cccc2C1c1ccccc1` (stereo not given), the Potency is reported as “inactive”. In the case of `CCCC(=O)NC(C)c1nc2ccccc2n1Cc1ccccc1` (stereo not given), the Potency is reported as “inactive”. In the case of `COc1ccc(C(NC(=O)c2cc(OC)ccc2OC)c2ccccc2)cc1` (stereo not given), the Potency is reported as inconclusive: 10 µM [inhibitor, partial curve, poor fit]. For `Cc1ccc(OCCNC(=O)c2cccc(Oc3ccc(C(F)(F)F)cc3[N+](=O)[O-])c2)cc1`, the Potency was inconclusive: 35.5 µM [inhibitor, single point]. In the case of `CC(C)c1nnc(NC(=O)CCS(=O)(=O)Cc2ccccc2)s1`, the Potency is reported as “inactive”. With `CCOC(=O)C1=C(C)NC(C)=C(C(=O)OCC)C1C(=O)OCC(=O)NC1CCCCC1` the Potency was inconclusive: 15.8 µM [inhibitor, partial curve, poor fit]. For `CCCCN(CC(O)COc1cccc(C)c1)CC(O)COc1cccc(C)c1` (stereo not given), the Potency was inconclusive: 35.5 µM [inhibitor, single point]. With `COc1cccc([C@H]2NC(=O)C[C@@H]3C[C@@H](C)[C@@H](c4cccc(OC)c4)N3C(=O)C=CC[C@@H]2C)c1` the Potency was inconclusive: 1.5 µM [activator, single point]. For `Cc1nnc(SCC(=O)Nc2c(Cl)cccc2Cl)n(N)c1=O`, the Potency was “inactive”. In the case of `CSCC[C@H](NC(=O)OC(C)(C)C)c1nnc(SCc2ccc(F)cc2)o1`, the Potency is reported as inconclusive: 20 µM [inhibitor, single point]. With `CCCn1c2ccccc2c2cnn(CC(=O)N3CCCC(C)C3)c(=O)c21` (stereo not given) the Potency was “inactive”. In the case of `Cc1ccccc1CC(=O)c1ccc(O)c(C)c1O`, the Potency is reported as inconclusive: 35.5 µM [inhibitor, single point]. For `Cc1ccc(C)c(NC(=O)/C(C#N)=C/c2cn(CC(=O)NCc3ccco3)c3ccccc23)c1`, the Potency was “inactive”. In the case of `CCc1nnc(NC(=O)CSc2nc(-c3ccccc3)cc(-c3ccc(F)cc3)c2C#N)s1`, the Potency is reported as inconclusive: 29.1 µM [inhibitor, single point].
